# Laboratory results taken from the supplement of paper PMC3741180, “A Novel High Throughput Biochemical Assay to Evaluate the HuR Protein-RNA Complex Formation” (PLoS ONE, 2013).
# Amino acid sequences for entries named in this document (tags omitted).
# UniProt Q15717, whole entry: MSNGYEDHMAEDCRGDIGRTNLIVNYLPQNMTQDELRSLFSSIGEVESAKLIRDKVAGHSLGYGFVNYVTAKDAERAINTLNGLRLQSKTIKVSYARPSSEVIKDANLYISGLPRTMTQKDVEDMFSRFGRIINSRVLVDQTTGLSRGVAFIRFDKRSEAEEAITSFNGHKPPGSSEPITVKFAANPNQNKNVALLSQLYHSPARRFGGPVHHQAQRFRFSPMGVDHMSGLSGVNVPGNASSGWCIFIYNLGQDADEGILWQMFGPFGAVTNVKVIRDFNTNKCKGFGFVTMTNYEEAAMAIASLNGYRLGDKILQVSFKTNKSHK
# Values joined by “and” are separate entries in the source; they are usually repeats but may differ in a detail not shown here. Equal values may be shown once. This is one part of the list. Repeats in this data set agree poorly, so a single value says little.
# Target: HuR (ELAVL1) - TNFalpha ARE RNA complex (UniProt Q15717)
# Experiment: AlphaScreen HuR-RNA complex signal Z-score relative to positive (Bi-TNF, DMSO) controls (Z-score (SD units of positive control)); higher = more complex signal
# Conditions: screen stage: primary screen; compound concentration: 25 nM
row,Compound,AlphaScreen HuR-RNA complex signal Z-score
1,CCN(CC)CCNC(C(=O)OCCC(C)C)c1ccccc1 (stereo unspecified),0.689
2,OCCN(CCO)c1nc(N2CCCCC2)c2nc(N(CCO)CCO)nc(N3CCCCC3)c2n1,-1.99
3,O=C(O)c1ccccc1C(=O)Nc1ccc(S(=O)(=O)Nc2nccs2)cc1,1.23
4,C[N+](C)(C)CC(=O)O,0.261
5,C[C@]12CC[C@@H]3c4ccc(OC(=O)c5ccccc5)cc4CC[C@H]3[C@@H]1CC[C@@H]2O,1.46
6,CN1CCN(C(c2ccccc2)c2ccccc2)CC1,-1.75
7,C[C@H](CCC(=O)O)[C@H]1CC[C@H]2[C@@H]3[C@@H](O)C[C@@H]4C[C@H](O)CC[C@]4(C)[C@H]3CC[C@]12C,-1.09
8,O=C(CCCN1CCN(c2ccccn2)CC1)c1ccc(F)cc1,3.21
9,NC[C@@H]1O[C@@H](O[C@H]2[C@H](O)[C@@H](O[C@H]3O[C@H](CO)[C@@H](O)[C@H](N)[C@H]3O)[C@H](N)C[C@@H]2N)[C@@H](O)[C@H](O)[C@H]1O,0.312
10,N[C@@H](Cc1cc(I)c(Oc2ccc(O)c(I)c2)c(I)c1)C(=O)O [LIOTHYRONINE (L- isomer) SODIUM],0.187
11,N[C@@H](Cc1cc(I)c(Oc2ccc(O)c(I)c2)c(I)c1)C(=O)O,-0.681
12,CN1CCC(=C2c3ccccc3Sc3ccccc32)CC1,0.652
13,Nc1c2ccccc2nc2ccccc12,-2.99
14,COC1=CC(=O)C(C(=O)c2ccccc2)=CC1=O,2.33
15,CC(O)Cn1cnc2c1c(=O)n(C)c(=O)n2C (stereo unspecified),2.01
16,N[C@@H](Cc1c[nH]c2ccccc12)C(=O)O,-1.33

row,Compound,AlphaScreen HuR-RNA complex signal Z-score
1,O=C(OOC(=O)c1ccccc1)c1ccccc1,0.6
2,CCC1(C)OC(=O)N(C)C1=O (stereo unspecified),5.18
3,NC(=O)CCCCC1CCSS1 (stereo unspecified),2.15
4,NS(=O)(=O)c1cc2c(cc1C(F)(F)F)NCNS2(=O)=O,-3.56
5,O=C(/C=C/c1ccc(O)cc1)c1ccc(O)cc1O,-0.25
6,Cc1c(NC(=O)c2cccnc2)c(=O)n(-c2ccccc2)n1C,2.26
7,CS(=O)(=O)OCCCCOS(C)(=O)=O,0.312
8,OCc1c[nH]c2ccccc12,1.52
9,COc1ccc(-c2coc3c(O)c(O)c(OC)cc3c2=O)cc1,0.38
10,CN1C(=O)CC[C@H]1c1cccnc1,1.17
11,CC[C@@H]1C(=O)OC[C@@H]1Cc1cncn1C,0.146 and 0.34
12,Cc1cc(O)c(C=O)c(O)c1C(=O)O,3.24
13,CC(=O)N[C@H]1[C@H]([C@H](O)[C@H](O)CO)OC(O)(C(=O)O)C[C@@H]1O (mixture of isomers),-3.16
14,COc1cc(OC)c2c(c1Cl)O[C@@]1(C(=O)CC(=O)C[C@H]1C)C2=O,2.7
15,CCN(CC)CC(=O)Nc1c(C)cccc1C,-0.261

# 2 consecutive entries already listed:
row,Compound,AlphaScreen HuR-RNA complex signal Z-score
9,COc1ccc(-c2coc3c(O)c(O)c(OC)cc3c2=O)cc1,0.38
10,CN1C(=O)CC[C@H]1c1cccnc1,1.17
